From patent US5470950A, “Biologically active amphiphilic peptide compositions and uses therefor” (Magainin Pharmaceuticals Inc., priority 1994, dated 1995)
Part of at least one peptide drawing is inferred or uncertain, most often the ends. Ends that are not written are not given here.

How the values were obtained:
Test in all cases: Antibacterial MIC assay (NCCLS M7-T2 microtiter broth dilution)
Format in all cases: cell-based
[1] = tested on: E.coli ATCC strain 25922; conditions: E. coli ATCC 25922; Mueller Hinton broth, 16-20 hours at 37° C.; lowest concentration giving a clear well
Description: (§1) Table I, which follows, indicates the Minimal Inhibitory Concentration (MIC) in μg/ml of Peptides (SEQ ID NO:1) through (SEQ ID NO:3), (SEQ ID NO:5), (SEQ ID NO:6), (SEQ ID NO:9) through (SEQ ID NO:11), and (SEQ ID NO:17) against S.aureus strain ATCC 25923, P. aeruginosa strain ATCC 27853, and E.coli ATCC strain 25922. The procedure for the antibacterial assay is based upon the guidelines of the National Committee for Clinical Laboratory Standards, Document M7-T2, Volume 8, No. 8, 1988. Stock solutions of peptides (SEQ ID NO: 1) through (SEQ ID NO:3), (SEQ ID NO:5), (SEQ ID NO:S), (SEQ ID NO:9) through (SEQ ID NO:12), and […] in accordance with the present invention are prepared at a concentration of 512 μg/ml in sterile deionized distilled water and stored at -70° C. Each peptide is a C-terminal amide and may or may not be acetylated at the N-Terminus. An acetyl group at the N-terminus is indicated by an X. The stock peptide solution is diluted in serial dilutions (1:2) down the wells of a microtiter plate so that the final concentrations of peptides in the wells are 0.25, 0.50, i, 2,4, 8, 16, 32, 64, 128, and 256 μg/ml. 1-5×10^5 CFUs/ml of either S. aureus ATCC 25923, E. coli ATCC 25922, or P. aeruginosa ATCC 27853 were added to the wells in full strength Mueller Hinton broth (BBL 11443) from a mid-log culture. The inoculum is standardized spectrophotometrically at 600 nm and is verified by colony counts. The plates are incubated for 16-20 hours at 37° C., and the minimal inhibitory concentration (MIC) for each peptide is determined. Minimal inhibitory concentration is defined as the lowest concentration of peptide which produces a clear well in the microtiter plate. The minimal inhibitory concentration of each of (SEQ ID NO:1) through (SEQ ID NO:3), (SEQ ID NO:5), (SEQ ID NO:6), (SEQ ID NO:9) through (SEQ ID NO:11), and (SEQ ID NO:17) is given in Table I below.

[2] = tested on: P. aeruginosa strain ATCC 27853; conditions: P. aeruginosa ATCC 27853; Mueller Hinton broth, 16-20 hours at 37° C.; lowest concentration giving a clear well
Description: as §1

[3] = tested on: S. aureus strain ATCC 25923; conditions: S. aureus ATCC 25923; Mueller Hinton broth, 16-20 hours at 37° C.; lowest concentration giving a clear well
Description: as §1

## LLKKLKKLLKKLQGPPQGQSPQ-NH2 [(SEQ ID NO: 11)]
[1]
  Minimal Inhibitory Concentration E. coli: > 256 µg/mL
[2]
  Minimal Inhibitory Concentration P. aeruginosa: 256 µg/mL
[3]
  Minimal Inhibitory Concentration S. aureus: > 256 µg/mL
